Percent effect of library compounds

Sequences of proteins named here, by UniProt entry; tags and fusion partners are left off. Residues count along the entry.
UniProt A4I591, 1-473: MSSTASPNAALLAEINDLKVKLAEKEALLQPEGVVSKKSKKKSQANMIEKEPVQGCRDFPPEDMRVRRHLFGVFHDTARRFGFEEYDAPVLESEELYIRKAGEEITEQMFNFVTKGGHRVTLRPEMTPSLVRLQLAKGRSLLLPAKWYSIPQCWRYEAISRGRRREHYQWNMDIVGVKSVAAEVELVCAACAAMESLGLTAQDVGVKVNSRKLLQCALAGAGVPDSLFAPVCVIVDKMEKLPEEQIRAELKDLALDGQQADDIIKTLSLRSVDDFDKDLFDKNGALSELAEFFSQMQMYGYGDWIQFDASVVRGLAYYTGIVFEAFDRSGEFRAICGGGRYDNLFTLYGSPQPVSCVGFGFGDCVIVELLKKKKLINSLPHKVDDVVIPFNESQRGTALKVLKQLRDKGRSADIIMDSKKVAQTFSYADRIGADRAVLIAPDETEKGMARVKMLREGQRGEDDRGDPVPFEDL
UniProt Q4DA54, 1-478: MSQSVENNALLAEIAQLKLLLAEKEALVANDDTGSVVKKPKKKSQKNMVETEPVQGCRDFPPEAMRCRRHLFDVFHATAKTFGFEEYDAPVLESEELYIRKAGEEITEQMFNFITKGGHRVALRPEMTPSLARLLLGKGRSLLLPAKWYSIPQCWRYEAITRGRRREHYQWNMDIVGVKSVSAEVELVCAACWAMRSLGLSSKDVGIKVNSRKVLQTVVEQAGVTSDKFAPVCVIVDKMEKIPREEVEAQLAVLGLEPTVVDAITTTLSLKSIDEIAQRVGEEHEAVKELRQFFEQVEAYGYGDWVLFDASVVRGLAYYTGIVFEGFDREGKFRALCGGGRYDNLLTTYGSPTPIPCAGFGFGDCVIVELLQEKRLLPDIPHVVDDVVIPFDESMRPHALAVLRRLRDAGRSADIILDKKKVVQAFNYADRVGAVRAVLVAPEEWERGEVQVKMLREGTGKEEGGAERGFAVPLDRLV

LiHisRS: 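Histidine-tRNA ligase, Leishmania infantum (UniProt A4I591). Enzyme assay of histidyl-tRNA synthetase; the read-out is not stated. Compounds at 30 µM. The record gives no direction; compounds that gave an IC50 in retests scored well above the rest, so higher reads as stronger inhibition. The assay is labelled LdHisRS but filed under L. infantum. About 69,000 compounds were tested under these conditions; 0.6% (about 410) showed 50% or more at least once.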
TcHisRS: 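Histidine-tRNA ligase, Trypanosoma cruzi CL Brener (UniProt Q4DA54). Enzyme assay of histidyl-tRNA synthetase; the read-out is not stated. Concentration: 30 µM. Higher reads as stronger inhibition (inferred: compounds with an IC50 in retests scored well above the rest). Size under these conditions: about 69,000 compounds, about 31 of them at 50% or above in at least one test.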

Values are the deposited “Percent Effect”, in %.
The controls that fix the scale are not given in the record; negative values are as filed.
The compounds are a random part of those screened.

| SMILES | LiHisRS | TcHisRS |
|---|---|---|
| `O=C(NC1CC1)c1cc(C2CC2)nc2onc(C3CCNCC3)c12` | 6.897 | 2.959 |
| `Cn1ccc(CS(=O)(=O)Cc2ccccc2)cc1=O` | 16.96 | 3.448 |
| `Cc1ncsc1CCCNC(=O)C1CC2(CCNCC2)CN1C` (centres undefined) | 3.306 | 5.042 |
| `Cc1nc(S(=O)(=O)N2CCCCc3ccccc32)cn1C` | 6.667 | 5.82 |
| `Cc1cc(NC(=O)N2CCN(c3nc(C)c(C)s3)CC2)no1` | 13.46 | 5.882 |
| `CCOc1ncccc1-c1cc2c(cc1C(N)=O)OCO2` | 3.947 | 5.419 |
| `C/C=C(/C)C(=O)NS(=O)(=O)c1ccc(C(F)(F)F)cn1` | 5 | -0.9804 |
| `CCn1ccnc1CN1CCCN(C(=O)c2csc(C)n2)CC1` | 5.505 | 4.706 |
| `O=S(=O)(CC1CCCO1)Nc1cc(Cl)ccc1-n1cccn1` (centres undefined) | 11.71 | 3.333 |
| `Cn1ccnc1CN1CCN2C[C@H](Oc3cccc(F)c3)C[C@H]2C1` | -8.571 | 6.863 |
| `CN1CCCC(Cc2ccnc3ccncc23)CC1` (centres undefined) | 0 | 8.108 |
| `C[S+]([O-])CCNCc1ccc(OCc2cscn2)cc1` (centres undefined) | 13.13 | 9.677 |
| `O=C(NC1CC(=O)N(C2Cc3ccccc3C2)C1)c1ccsc1` (centres undefined) | 8.333 | 3.409 |
| `CC(C)NC(=O)c1cccc(NC(=O)CCCc2nc(C(C)C)no2)c1` | 16.81 | 5.752 |
| `CC(C)C(=O)N1CCC(C)(c2cc[nH]n2)CC1` | 7.092 | 4.135 |
| `CCc1nccn1C1CCCN(C(=O)c2cnn3ccc(C)nc23)C1` (centres undefined) | 19.05 | 5.263 |
| `COc1ccc(CN[C@@H]2CO[C@H](CNC(=O)N3CCOCC3)[C@H]2O)cc1` | 6.757 | -4.348 |
| `CC(Cn1cccn1)n1cnc2ccc(F)cc2c1=O` (centres undefined) | 8.197 | 7.2 |
| `Cc1ncncc1-c1ccnc(NC(C)C)n1` | 8.571 | 7.91 |
| `COCCOC1CCN(C(C(=O)O)c2c(Cl)cccc2OC)CC1` (centres undefined) | 18.18 | 9.453 |
| `Cc1ccccc1CC(=O)N1C[C@@H](O)[C@H](N2CCN(C)CC2)C1` | 12.77 | 15.41 |
| `Cc1ccc(OCCCC(=O)NC(C)c2nnc3n2CCC3)cc1` (centres undefined) | 14.91 | 10.76 |
| `O=C1N(CCCc2ccccc2)CCCC1(O)CNCC1CCCCC1` (centres undefined) | 0 | -1.163 |
| `CC(=O)N1CCCCC1c1cc(CO)[nH]n1` (centres undefined) | 19.44 | -5.946 |
| `Cn1cc(S(=O)(=O)N(CC(F)(F)F)C2CC2)cc1C(N)=O` | 14.67 | 5.82 |
| `CC(C)c1nn(C)c(N2CCOCC2)c1CN[C@H](C)CO` | -10.61 | 3.03 |
| `CCCc1nc(C)cc(NCCc2nnc(N)s2)n1` | 4.196 | 9.453 |
| `CCc1nnc(CN(C)c2nc(C3CCCC3)nc3c2cnn3C)o1` | 24.04 | 1.626 |
| `COc1ccccc1CN1CC[C@H](c2nnc(-c3cncn3C)o2)C1` | 13.51 | -2.488 |
| `CC(C)(CN1C[C@H](Nc2ncccn2)[C@@H](C2CC2)C1)N1CCOCC1` | 8.163 | 2.051 |
| `c1coc(-c2nnc(CN3CCCC(CN4CCCCCC4)C3)o2)c1` (centres undefined) | 40 | 2.174 |
| `CN1CCCN(Cn2nc(-c3ccccc3F)ccc2=O)CC1` | 39.13 | 13 |
| `CC(CN1CCC(CCO)CC1)n1cnc2ccccc21` (centres undefined) | 7.692 | 3.093 |
| `Cc1oc(C(=O)O)cc1S(=O)(=O)Nc1cccc(-c2nccs2)c1` | 19.18 | 4.211 |
| `Cc1nnc([C@H]2C[C@@H]3CCN(Cc4cc(C)on4)C[C@H]3O2)[nH]1` | 11.29 | -0.8772 |
| `COC(=O)Cn1c(=O)nc2n1C(=O)N(c1cccc(C)c1)C2` | 20.78 | -2.424 |
| `COc1cccc(S(=O)(=O)N2CCOC(C)(C(N)=O)C2)c1` (centres undefined) | 2.797 | 3.39 |
| `Cc1cc(CN2CCC(C3Nc4ccccc4S(=O)(=O)N3)CC2)oc1C` (centres undefined) | 6 | 2.247 |
| `COc1ccc(CN2CCOC[C@H](OCC(=O)N(C)C)C2)cc1` | 16.22 | -0.4975 |
| `O=C1CC2(CCNCC2)C(=O)N1Cc1ccc(F)cc1` | 17.31 | 1.942 |
| `CCC[C@@H]1CN(S(=O)(=O)c2ccc3[nH]c(=O)[nH]c3c2)C[C@H]1NC(C)=O` | 8 | 2.41 |
| `CC(=O)NCC1CCC2(CCN(c3nccc(C4CCCC4)n3)CC2)O1` (centres undefined) | 14.52 | 6.14 |
| `COc1ccc2c(C)c(C(=O)NC3CCCOC3)oc2c1` (centres undefined) | 0 | 6.383 |
| `Cc1nc2c(N(C)Cc3ccnn3C)nc(N)nc2n1C` | 17.7 | 5.263 |
| `Fc1cccnc1O[C@H]1CN(Cc2ccoc2)[C@@H]2CCCO[C@H]12` | 7.692 | 4.878 |
| `CC(=O)N1CCc2c(nc(N(C)C)nc2NCCCn2ccnc2C)C1` | 13.33 | 0.8696 |
| `CC(=O)N1CC[C@H]2CC(=O)N(CCc3c[nH]cn3)CC[C@H]2C1` | 9.459 | 0 |
| `O=C(c1cscn1)N1CCC(Cc2cnc3[nH]ccc3c2)C1` (centres undefined) | 15.62 | 9.574 |
| `CNCC(=O)N1CCCC1c1n[nH]cc1-c1ccccc1F` (centres undefined) | -8.511 | -11.65 |
| `COc1cccc2c1OCC(CNC(=O)CCCN1CCOCC1)C2` (centres undefined) | 16.98 | 3.39 |
| `Cc1ncc(CN2CCOC(c3ccc(-c4cc[nH]n4)cn3)C2)s1` (centres undefined) | -13.68 | 5.224 |

6 of the entries, repeated:

SMILES	LiHisRS	TcHisRS
COc1cccc2c1OCC(CNC(=O)CCCN1CCOCC1)C2 (centres undefined)	16.98	3.39
O=C(NC1CC(=O)N(C2Cc3ccccc3C2)C1)c1ccsc1 (centres undefined)	8.333	3.409
Cn1ccnc1CN1CCN2C[C@H](Oc3cccc(F)c3)C[C@H]2C1	-8.571	6.863
Cc1oc(C(=O)O)cc1S(=O)(=O)Nc1cccc(-c2nccs2)c1	19.18	4.211
O=S(=O)(CC1CCCO1)Nc1cc(Cl)ccc1-n1cccn1 (centres undefined)	11.71	3.333
Cc1nnc([C@H]2C[C@@H]3CCN(Cc4cc(C)on4)C[C@H]3O2)[nH]1	11.29	-0.8772

Source: ChEMBL document CHEMBL3988442, “University of Dundee, Small-Polar-MMV Screening Library” (2021).